Measurements reported in PubChem BioAssay AID1259306 (Sanger Institute, 2017)

- Aim: 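Find kinases whose loss reduces colorectal cancer cell viability or aids targeted drugs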 (primary screen)
- Cells: human SNU-C5 colorectal cancer cells
- Reagents: siRNA pool against human genes
- Challenge: DMSO vehicle alone, or one anchor drug: BYL719 at 1 µM, cetuximab at 5 µg/ml or trametinib at 10 nM, given 24 h into the assay
- Detection: 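Replicate-averaged viability against non-targeting pool control, given as fraction and robust z-score; separate synergy scores for BYL719, cetuximab and trametinib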
- Direction: robust z-score, knock-down alone and viability, knock-down alone: higher = more viable cells; synergy score with BYL719: higher = stronger synthetic lethality with BYL719; synergy score with cetuximab: higher = stronger synthetic lethality with cetuximab; synergy score with trametinib: higher = stronger synthetic lethality with trametinib
- Hit rule: 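Called essential when the robust z-score for knock-down alone is below -3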
- Meaning of the calls: active = essential (knock-down alone); inactive = no change alone
Here is an unselected part of 794 reagents tested. 11 of them (1.4%) count as active. 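Calls reflect knock-down alone; synergy scores play no part, so knock-downs synergising with a drug can be called no change.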 Unmarked entries are inactive. No viability above 1 is reported: the scale is capped. Reagent sequences are not shown. The record does not give: the amount of reagent, the time to read-out.

target | robust z-score, knock-down alone | viability, knock-down alone | synergy score with BYL719 | synergy score with cetuximab | synergy score with trametinib
MARK1 (GeneID 4139) | 0.208 | 0.892 | 0.18 | 0.00197 | -0.0216
PRPS1L1 (GeneID 221823) | 0.0416 | 0.869 | -0.0718 | -0.0283 | -0.0692
GCK (GeneID 2645) | -0.943 | 0.734 | 0.0123 | -0.0548 | -0.11
BRD2 (GeneID 6046) | 0.989 | 1 | 0 | 0.238 | -0.116
EPHB3 (GeneID 2049) | 0.109 | 0.879 | -0.00561 | -0.121 | -0.166
FGR (GeneID 2268) | 0.324 | 0.908 | 0.187 | -0.0875 | -0.0753
CDKN1C (GeneID 1028) | -0.111 | 0.848 | -0.0771 | -0.152 | -0.0489
GUCY2EP (GeneID 390226) | 0.247 | 0.898 | 0.192 | 0.109 | -0.105
CAMK2D (GeneID 817) | 0.838 | 0.979 | 0.00238 | -0.0208 | -0.169
GRK7 (GeneID 131890) | -0.801 | 0.753 | -0.0433 | -0.247 | -0.148
FBXW7 (GeneID 55294) | 0.00695 | 0.865 | -0.133 | -0.123 | -0.28
AMER1 (GeneID 139285) | 0.627 | 0.95 | 0.0604 | -0.0499 | -0.25
CAMK2N1 (GeneID 55450) | -2.16 | 0.566 | 0.0455 | -0.141 | -0.151
MED24 (GeneID 9862) | 0.989 | 1 | 0.19 | 0 | -0.0941
PFKFB4 (GeneID 5210) | -0.217 | 0.834 | -0.024 | 0.0494 | -0.0338
CTNNB1 (GeneID 1499) | -0.711 | 0.766 | 0.151 | -0.0454 | -0.326
PRKACA (GeneID 5566) | 0.989 | 1 | 0.0505 | 0 | 0.053
PIK3R3 (GeneID 8503) | 0.989 | 1 | 0.127 | 0.155 | -0.0846
TGFBR2 (GeneID 7048) | 0.0765 | 0.874 | 0.0474 | 0.0175 | 0.0666
ATP23 (GeneID 91419) | 0.989 | 1 | 0.0659 | 0 | -0.235
ADGRL2 (GeneID 23266) | 0.625 | 0.95 | 0.0332 | 0.185 | 0.019
DYRK2 (GeneID 8445) | 0.0673 | 0.873 | 0.144 | -0.089 | 0.143
AMHR2 (GeneID 269) | 0.865 | 0.983 | 0.0252 | -0.0172 | 0.0915
TK2 (GeneID 7084) | 0.989 | 1 | 0.0519 | 0 | -0.194
ERN1 (GeneID 2081) | -3.16 (active) | 0.428 | -0.205 | -0.111 | -0.222
FN3K (GeneID 64122) | -0.906 | 0.739 | -0.155 | -0.194 | -0.113
BRSK2 (GeneID 9024) | 0.316 | 0.907 | -0.0476 | -0.0927 | -0.124
BCKDK (GeneID 10295) | 0.77 | 0.97 | 0.114 | -0.0302 | 0.0489
GRK6 (GeneID 2870) | -1.15 | 0.706 | -0.187 | -0.113 | -0.227
EIF2AK4 (GeneID 440275) | 0.989 | 1 | 0 | 0 | 0.00583
BUB1B (GeneID 701) | -0.617 | 0.779 | 0.066 | 0.00886 | -0.0224
AAK1 (GeneID 22848) | -0.34 | 0.817 | 0.29 | 0.198 | -0.197
NEK1 (GeneID 4750) | 0.458 | 0.927 | -0.0369 | 0.0836 | 0.0216
EPHB6 (GeneID 2051) | -0.125 | 0.847 | 0.0603 | 0.0279 | 0.0624
TGFBR3 (GeneID 7049) | 0.58 | 0.944 | -0.0564 | -0.0564 | -0.0217
PRKAG1 (GeneID 5571) | 0.529 | 0.937 | 0.12 | 0.0396 | -0.00874
TAOK3 (GeneID 51347) | -0.433 | 0.804 | 0.0473 | -0.128 | -0.0739
GSK3A (GeneID 2931) | -0.398 | 0.809 | 0.041 | 0.0298 | 0.0622
STK38L (GeneID 23012) | -1.52 | 0.655 | -0.00698 | -0.0391 | -0.0408
MPP1 (GeneID 4354) | 0.989 | 1 | 0.0943 | 0.0551 | -0.0291
NUP62 (GeneID 23636) | -0.843 | 0.748 | -0.129 | -0.15 | -0.171
NF1 (GeneID 4763) | 0.419 | 0.921 | 0.201 | -0.0786 | 0.0692
CALM1 (GeneID 801) | 0.802 | 0.974 | 0.0532 | -0.0257 | -0.0759
TSSK1B (GeneID 83942) | -0.842 | 0.748 | -0.0856 | -0.0741 | -0.175
TBCK (GeneID 93627) | -0.161 | 0.842 | 0.0419 | -0.00388 | -0.0523
LATS1 (GeneID 9113) | -0.315 | 0.82 | 0.157 | 0.265 | -0.0557
NADK (GeneID 65220) | 0.572 | 0.943 | -0.0209 | 0.0998 | 0.0871
RSKR (GeneID 124923) | -0.422 | 0.806 | 0.023 | 0.0336 | -0.111
MAST3 (GeneID 23031) | -0.0209 | 0.861 | 0.0649 | 0.0111 | -0.0159
CLK1 (GeneID 1195) | 0.758 | 0.968 | -0.0318 | 0.174 | -0.181

3 entries already listed, ordered by “synergy score with trametinib”, highest first.
target | robust z-score, knock-down alone | viability, knock-down alone | synergy score with BYL719 | synergy score with cetuximab | synergy score with trametinib
NF1 (GeneID 4763) | 0.419 | 0.921 | 0.201 | -0.0786 | 0.0692
CALM1 (GeneID 801) | 0.802 | 0.974 | 0.0532 | -0.0257 | -0.0759
TSSK1B (GeneID 83942) | -0.842 | 0.748 | -0.0856 | -0.0741 | -0.175
